# Data as given in paper PMC5404189.
# Sequences of proteins named here, by UniProt entry; tags and fusion partners are left off. Residues count along the entry.
# UniProt A6QG59, residues 30-165: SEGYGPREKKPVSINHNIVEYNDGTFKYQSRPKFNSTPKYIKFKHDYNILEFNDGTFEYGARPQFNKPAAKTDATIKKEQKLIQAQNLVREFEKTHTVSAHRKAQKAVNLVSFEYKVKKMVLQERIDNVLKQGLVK
# No constants are given. Whether binding was seen depends on the method and setting. Some entries that bind do so weakly or less than the wild type.
# Molecular target: extracellular fibrinogen binding protein (Staphylococcus aureus) (UniProt A6QG59)
# Test: ELISA; only the target purified
binder,measurement,value
"fibrinogen of cow plasma (protein, UniProt P02672;P02676;P12799) chain 1: GPRLVERQQSACKETGWPFCSDEDWNTKCPSGCRMKGLIDEVDQDFTSRINKLRDSLFNYQKNSKDSNTLTKNIVELMRGDFAKANNNDNTFKQISEDLRSRIEILRRKVIEQVQRIKVLQKNVRDQLVDMKRLEVDIDIKIRSCKGSCSRALEHKVDLEDYKNQQKQLEQVIAINLLPSRDIQYLPLIKMSTITGPVPREFKSQLQEAPLEWKALLEMQQTKMVLETFGGDGHARGDSVSQGTGLAPGSPRKPGTSSIGNVNPGSYGPGSSGTWNPGRPEPGSAGTWNPGRPEPGSAGTWNPGRPEPGSAGTWNPGRPEPGSAGTWNPGRPEPGSAGTWNTGSSGSSSFRPDSSGHGNIRPSSPDWGTFREEGSVSSGTKQEFHTGKLVTTKGDKELLIDNEKVTSGHTTTTRRSCSKVITKTVTNADGRTETTKEVVKSEDGSDCGDADFDWHHTFPSRGNLDDFFHRDKDDFFTRSSHEFDGRTGLAPEFAALGESGSSSSKTSTHSKQFVSSSTTVNRGGSAIESKHFKMEDEAESLEDLGFKGAHGTQKGHTKARPARGIHTSPLGEPSLTP chain 2: GHRPYDKKKEEAPSLRPVPPPISGGGYRARPATATVGQKKVERKPPDADGCLHADPDLGVLCPTGCKLQDTLVRQERPIRKSIEDLRNTVDSVSRTSSSTFQYITLLKNMWKGRQNQVQDNENVVNEYSSHLEKHQLYIDETVKNNIPTKLRVLRSILENLRSKIQKLESDVSTQMEYCRTPCTVTCNIPVVSGKECEKIIRNEGETSEMYLIQPEDSSKPYRVYCDMKTEKGGWTVIQNRQDGSVDFGRKWDPYKQGFGNIATNAEGKKYCGVPGEYWLGNDRISQLTNMGPTKLLIEMEDWKGDKVTALYEGFTVQNEANKYQLSVSKYKGTAGNALIEGASQLVGENRTMTIHNSMFFSTYDRDNDGWKTTDPRKQCSKEDGGGWWYNRCHAANPNGRYYWGGAYTWDMAKHGTDDGVVWMNWQGSWYSMKKMSMKIRPYFPEQ chain 3: YVATRDNCCILDERFGSYCPTTCGIADFLNNYQTSVDKDLRTLEGILYQVENKTSEARELVKAIQISYNPDQPSKPNNIESATKNSKSMMEEIMKYETLISTHESTIRFLQEVYNSNSQKIVNLRDKVVQLEANCQEPCQDTVKIHDVTGRDCQDVANKGAKESGLYFIRPLKAKQFLVYCEIDGSGNGWTVFQKRLDGSLDFKKNWIQYKEGFGHLSPTGTGNTEFWLGNEKIHLISTQSSIPYVLRIQLEDWNGRTSTADYASFKVTGENDKYRLTYAYFIGGDAGDAFDGYDFGDDSSDKFFTSHNGMQFSTWDSDNDKYDGNCAEQVGIGWWMNKCHAGHLNGVYYQGGTYSKTSTPNGYDNGIIWATWKSRWYSMKKTTMKIIPLNRLAIGEGQQHQLGGAKQVGVEHHVEIEYD",binding,binds
